Measurements taken from publication PMC10858191.
These are yes or no findings as the source states them, for the method shown. Some results given as binding are weak or reduced against the parent protein; the word gives no strength.

The chains behind the UniProt entries cited, without tags or fusion partners. Where a name states a change or a piece, a line headed by the entry shows the natural chain unless it says otherwise.
UniProt Q13257: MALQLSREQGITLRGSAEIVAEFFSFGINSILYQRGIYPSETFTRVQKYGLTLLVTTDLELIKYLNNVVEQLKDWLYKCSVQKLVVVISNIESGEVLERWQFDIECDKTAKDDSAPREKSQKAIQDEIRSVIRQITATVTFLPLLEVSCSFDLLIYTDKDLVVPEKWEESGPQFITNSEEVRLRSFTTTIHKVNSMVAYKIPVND
UniProt O60566: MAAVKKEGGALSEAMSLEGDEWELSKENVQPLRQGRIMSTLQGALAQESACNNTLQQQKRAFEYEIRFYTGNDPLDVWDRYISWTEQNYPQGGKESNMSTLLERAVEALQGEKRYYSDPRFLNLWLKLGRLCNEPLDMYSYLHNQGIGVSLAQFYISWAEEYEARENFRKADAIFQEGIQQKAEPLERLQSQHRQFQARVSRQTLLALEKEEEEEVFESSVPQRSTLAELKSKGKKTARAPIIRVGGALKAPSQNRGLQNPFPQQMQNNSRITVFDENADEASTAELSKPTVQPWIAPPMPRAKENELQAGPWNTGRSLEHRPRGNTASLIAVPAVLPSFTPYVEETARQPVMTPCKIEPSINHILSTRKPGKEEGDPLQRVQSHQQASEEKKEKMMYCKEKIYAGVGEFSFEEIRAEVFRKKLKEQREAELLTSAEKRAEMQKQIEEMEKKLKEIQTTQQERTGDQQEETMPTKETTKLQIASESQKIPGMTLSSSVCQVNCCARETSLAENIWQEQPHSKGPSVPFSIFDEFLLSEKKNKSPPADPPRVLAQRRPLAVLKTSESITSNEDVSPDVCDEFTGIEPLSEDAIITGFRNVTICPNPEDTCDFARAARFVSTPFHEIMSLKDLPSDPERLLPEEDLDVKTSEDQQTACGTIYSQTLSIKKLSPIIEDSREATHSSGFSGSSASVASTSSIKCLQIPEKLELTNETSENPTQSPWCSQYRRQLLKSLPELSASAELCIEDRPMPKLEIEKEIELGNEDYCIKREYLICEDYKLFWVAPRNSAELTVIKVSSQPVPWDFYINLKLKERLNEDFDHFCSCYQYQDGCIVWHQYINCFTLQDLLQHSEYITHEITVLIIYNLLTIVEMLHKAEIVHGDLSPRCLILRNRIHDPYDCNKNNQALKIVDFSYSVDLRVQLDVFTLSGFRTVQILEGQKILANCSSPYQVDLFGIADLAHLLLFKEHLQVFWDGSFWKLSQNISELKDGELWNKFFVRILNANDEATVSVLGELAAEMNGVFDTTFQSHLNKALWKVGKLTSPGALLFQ

Target: Mad2-StrepII (recombinant) (UniProt Q13257)
Test: co-purification of co-expressed proteins (StrepTactin, GSTrap, SEC); Cdc20, BubR1 and Mad2 baculoviruses coinfected in High Five cells; lysate over StrepTactin (Mad2-StrepII), then GSTrap HP (BubR1-GST), TEV and HRV-3C on ice 4 h, then Superose 6 increase 10/300; 50 mM HEPES pH 7.5, 200 mM NaCl, 0.5 mM TCEP, 5% glycerol

Q: Which binding does the source give for “BubR1-GST I242D/I243D/V245D/L249D (4D) (recombinant) (from UniProt O60566 1-1050)” here?
A: binds
